PubChem BioAssay AID504847 (National Center for Advancing Translational Sciences (NCATS), 2011)
Where “and” joins values, the source holds several entries; their conditions need not be identical. Equal values may be shown once. About 3,700 (0.93%) of roughly 400,000 compounds were called active. The shares of active, inactive and inconclusive entries below differ from those in the screen. Calls come from the whole dose curve; as a rule, active = well fitted inhibition curve with a large enough effect; inconclusive = small, poorly fitted or top-dose-only effect, or another doubt; inactive = no such curve, though single readings can be large or run the other way. Where the call is inconclusive, the potency comes from a doubtful curve fit.
% is set by controls: 0 for no effect and ±100 for the full control effect; potency is the fitted concentration of half-maximal effect.

Protein sequences, listed by entry. Tags and fused reporters are not part of them. Lines headed by an entry give the natural chain unless they say otherwise; changes in a name come on top.
UniProt P11473: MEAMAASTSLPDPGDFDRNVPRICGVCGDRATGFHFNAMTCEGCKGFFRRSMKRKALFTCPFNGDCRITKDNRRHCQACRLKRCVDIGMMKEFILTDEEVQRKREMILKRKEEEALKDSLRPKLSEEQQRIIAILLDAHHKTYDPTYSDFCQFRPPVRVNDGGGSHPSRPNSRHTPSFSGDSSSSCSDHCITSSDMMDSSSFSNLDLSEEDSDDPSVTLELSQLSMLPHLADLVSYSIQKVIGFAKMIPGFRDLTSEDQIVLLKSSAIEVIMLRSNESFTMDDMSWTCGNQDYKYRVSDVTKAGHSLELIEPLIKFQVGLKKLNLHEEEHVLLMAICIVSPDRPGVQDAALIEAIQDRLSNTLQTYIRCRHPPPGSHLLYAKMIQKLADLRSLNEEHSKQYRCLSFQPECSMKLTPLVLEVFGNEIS

These molecules were tested against Vitamin D3 receptor (Homo sapiens) (UniProt P11473) (assay: Inhibitors of the vitamin D receptor (VDR): qHTS). Settings: VDR-SRC2-3 peptide fluorescence polarization, 2 h; max response, negative = inhibition: hits give low values.
Method in brief: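 Compounds are added to VDR with labelled SRC2-3 coactivator peptide and held 2 h at room temperature. Inhibition of the VDR–peptide interaction is then read as a change in fluorescence polarization.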
In the case of `CC(O)C1C=CC=CC(=O)OC2CC3OC4C5OC5(C)CCC4(COC(=O)C4OC4(C)C(O)CO1)C2(C)C31CO1` (stereo unspecified), the Potency is reported as inconclusive: 79.4 µM [inhibitor, single point]. With `O=C(c1ccccc1F)c1cn(Cc2ccccc2)c2ccccc12` the max response, negative = inhibition was inactive: 5.5%. With `CCOc1ccc(N2C(=O)NC(=O)/C(=C\c3ccc(N4CCOCC4)cc3C)C2=O)cc1` the Potency was inconclusive: 50.1 µM [inhibitor, partial curve, poor fit]. With `COc1ccccc1C=C1C(=O)NC(=S)NC1=O` the Potency was active: 44.7 µM. `CC1Oc2cc3c(-c4c(O)cc(O)c5c(O)c6c(cc45)OC(C)C(C)C6=O)c(O)cc(O)c3c(O)c2C(=O)C1C` (stereo unspecified) was tested, and the Potency was active: 79.4 µM. In the case of `O=C(Oc1ccccc1)N1CCC[C@@]2(CCN(Cc3cc(C(F)(F)F)cc(C(F)(F)F)c3)C2)C1`, the Potency is reported as inconclusive: 44.7 µM [inhibitor, partial curve, poor fit]. With `COc1ccc(CN2C(=O)NC(=O)/C(=C/c3ccc([N+](=O)[O-])s3)C2=O)cc1` the Potency was active: 22.4 µM. `Cc1[nH]n(-c2ccccc2)c(=O)c1C(c1ccc([N+](=O)[O-])cc1)c1c(C)[nH]n(-c2ccccc2)c1=O` was tested, and the Potency was inconclusive: 25.1 µM [inhibitor, single point]. For `CC(C)=CCOc1c2occc2cc2ccc(=O)oc12`, the Potency was inconclusive: 89.1 µM [inhibitor, single point]. With `CCOc1cccc(N2C(=O)/C(=C/c3ccco3)C(=O)NC2=S)c1` the Potency was inconclusive: 89.1 µM [inhibitor, single point]. In the case of `O=C1NC(=O)C(=Cc2csc3ccccc23)C(=O)N1`, the Potency is reported as active: 35.5 µM. For `C=CCN1C[C@H](C)N([C@H](c2ccc(C(=O)N(CC)CC)cc2)c2cccc(O)c2)C[C@H]1C`, the max response, negative = inhibition was inactive: 11.1%. `CN1C(=O)NC(=O)/C(=C\C=C\c2ccccc2[N+](=O)[O-])C1=O` was tested, and the Potency was active: 11.2 µM. In the case of `COc1cc(/C=C/[N+](=O)[O-])ccc1O`, the Potency is reported as active: 28.2 µM. `O=C1NC(=O)C(=Cc2ccccc2Oc2ccc(F)cc2)C(=O)N1` was tested, and the Potency was active: 50.1 µM. With `COc1cc(/C=C2\C(=O)NC(=O)N(c3ccccc3)C2=O)cc(OC)c1OC` the Potency was inconclusive: 63.1 µM [inhibitor, partial curve, poor fit]. In the case of `C=C(C=O)CC1CC(O)[C@]2(C)OC3C[C@@H]4OC5C[C@]6(C)O[C@]7(C)CCC8OC9C[C@]%10(C)OC(/C(C)=C\CO)C(O)CC%10OC9CC(C)C8OC7CC6O[C@]5(C)C/C=C\C4OC3CC2O1` (stereo partly specified), the Potency is reported as inconclusive: 89.1 µM [inhibitor, partial curve, poor fit]. In the case of `CCCc1cc(=O)oc2c3c(cc(OCC(=O)N[C@@H](C)C(=O)O)c12)OC(C)(C)CC3`, the Potency is reported as inconclusive: 79.4 µM [inhibitor, partial curve, poor fit]. In the case of `COc1cc(C(c2c(O)c3ccccc3oc2=O)c2c(C)n(C)n(-c3ccccc3)c2=O)ccc1O` (stereo unspecified), the Potency is reported as inconclusive: 50.1 µM [inhibitor, partial curve, poor fit]. For `Cc1nn(C2CCOC(C)(C)C2)c2c1C(c1ccc(OC(C)C)cc1)SCC(=O)N2` (stereo unspecified), the Potency was active: 79.4 µM. With `COc1ccc2c(c1)CC1(CN2C)C(=O)NC(=O)N(CCc2ccccc2)C1=O` (stereo unspecified) the Potency was inconclusive: 50.1 µM [inhibitor, partial curve]. For `CC(C)NC(=O)N1CCCC2(CCN(C(=O)Oc3ccccc3)CC2)C1`, the max response, negative = inhibition was inactive: -8.97%. For `COC(=O)/C(C)=C\CC12OC(C)(C)C3CC(C=C4C(=O)c5c(OC)c6c(c(CC=C(C)C)c5OC431)OC(C)(CCC=C(C)C)C=C6)C2=O` (stereo unspecified), the Potency was active: 2 µM. With `CCN1C(=O)C(=Cc2c(C)n(CC(=O)NCC3CCCO3)c3ccccc23)C(=O)N(CC)C1=S` (stereo unspecified) the Potency was inconclusive: 25.1 µM [inhibitor, full curve, poor fit]. `Nc1ccc2nonc2c1[N+](=O)[O-]` was tested, and the max response, negative = inhibition was inactive: -15.8%. For `c1cc(N2CCCC3(CCNCC3)C2)ccn1`, the Potency was inconclusive: 50.1 µM [inhibitor, partial curve, poor fit]. `CCN1CCN(c2ccc([N+](=O)[O-])cc2C=C2C(=O)NC(=O)NC2=O)CC1` was tested, and the Potency was inconclusive: 89.1 µM [inhibitor, single point]. `CCc1ccc(N2C(=O)NC(=O)/C(=C\C=C\c3ccco3)C2=O)cc1` was tested, and the Potency was inconclusive: 11.2 µM [inhibitor, full curve]. For `COc1ccc(CC2C(=O)N(C)C(=O)N(C)C2=O)c(OC)c1`, the Potency was inconclusive: 89.1 µM [inhibitor, single point]. For `O=C(CCN1CCN(CCO)CC1)N1c2ccccc2Sc2ccc(C(F)(F)F)cc21`, the Potency was inconclusive: 89.1 µM [inhibitor, single point]. With `CC(C)=CCCC1(C)C=Cc2c(O)c3c(c(CC=C(C)C)c2O1)OC12C(CC4CC1C(C)(C)OC2(C/C=C(/C)C(=O)O)C4O)C3=O` (stereo unspecified) the Potency was active: 50.1 µM. In the case of `CN(C)C1C(=O)C(C(N)=O)=C(O)[C@@]2(O)C(=O)C3=C(O)c4c(O)ccc(Cl)c4[C@](C)(O)C3CC12` (stereo partly specified), the Potency is reported as inconclusive: 44.7 µM [inhibitor, partial curve]. With `Cc1ccc2nc3sc(=O)sc3nc2c1` the Potency was active: 8.91 µM. In the case of `O=C1NC(=O)C(=Cc2c(Cl)cccc2Cl)C(=O)N1`, the Potency is reported as inconclusive: 39.8 µM [inhibitor, partial curve]. With `O=C1NC(=O)C(Nc2ccc(Cl)c(Cl)c2)C(=O)N1` the Potency was active: 39.8 µM. `NS(=O)(=O)c1ccc(N2CCNCC2)cc1` was tested, and the max response, negative = inhibition was inactive: 7.43%. For `Cc1ccc(CCNC(=O)C2CCCN(Cc3nc(-c4cccc(Cl)c4)oc3C)C2)cc1` (stereo unspecified), the Potency was active: 89.1 µM. For `Cc1c(C(=O)N2CCC3(CC2)OCCO3)oc2ccc(S(=O)(=O)N3CCCCC3)cc12`, the max response, negative = inhibition was inactive: -15.7%. With `CC1=C(O)C(=O)C=C2C1=CC=C1C2(C)CCC2(C)C3CC(C)(C(=O)O)CCC3(C)CCC12C` (stereo unspecified) the Potency was active: 28.2 µM. `COC(=O)C1=Nc2ccccc2/C1=C\c1c(O)n(-c2ccc(OC)cc2)c(=O)[nH]c1=O` was tested, and the Potency was inconclusive: 56.2 µM [inhibitor, partial curve, poor fit]. In the case of `COc1cc2c3cc1Oc1c(OC)c(OC)cc4c1[C@@H](Cc1ccc(OC(=O)c5ccc([N+](=O)[O-])cc5)c(c1)Oc1ccc(cc1)C[C@@H]3N(C)CC2)N(C)CC4`, the Potency is reported as inconclusive: 79.4 µM [inhibitor, single point]. With `COCCCn1c(N)c(C(=O)Nc2ccccc2)c2nc3ccccc3nc21` the Potency was inconclusive: 100 µM [inhibitor, single point]. `C=CCn1c(O)c(C(C)=NC2CCN(Cc3ccccc3)CC2)c(=O)[nH]c1=O` was tested, and the Potency was inconclusive: 100 µM [inhibitor, partial curve, poor fit]. For `CCn1c(P(C)(=O)O)nc2ccccc21`, the Potency was inconclusive: 35.5 µM [inhibitor, partial curve, poor fit]. `COP(=S)(OC)Oc1nc(Cl)c(Cl)cc1Cl` was tested, and the Potency was active: 4.47 µM. With `CCN(CC)P(=S)(c1c(C)nc2ccccn12)c1c(C)nc2ccccn12` the Potency was inconclusive: 79.4 µM [inhibitor, partial curve, poor fit]. In the case of `COc1ccc(CN2C(=O)NC(=O)/C(=C\c3cccc(OC)c3OC)C2=O)cc1`, the Potency is reported as inconclusive: 31.6 µM [inhibitor, single point]. For `O=C1NC(=O)C(=Cc2cc(Cl)ccc2OCc2ccc(C(=O)O)cc2)C(=O)N1`, the Potency was active: 50.1 µM. With `O=C1NC(=O)N(CCC2=CCCCC2)C(=O)/C1=C/c1ccc(O)cc1` the Potency was inconclusive: 56.2 µM [inhibitor, partial curve, poor fit]. `CCOP(=S)(OCC)O/N=C(\C#N)c1ccccc1Cl` was tested, and the Potency was active: 22.4 µM. With `CCCCn1c(O)c(/C(CC)=N/N2CCCCC2c2cccnc2)c(=O)[nH]c1=S` (stereo unspecified) the Potency was inconclusive: 89.1 µM [inhibitor, partial curve, poor fit]. With `Cc1cccn2c(=O)c(/C=C(\C#N)c3nc4ccccc4s3)c(Oc3ccc(F)cc3)nc12` the Potency was inconclusive: 70.8 µM [inhibitor, partial curve, poor fit]. With `CCOc1ccccc1N1C(=O)NC(=O)/C(=C/c2ccc3c4c(cccc24)CC3)C1=O` the Potency was inconclusive: 39.8 µM [inhibitor, partial curve, poor fit]. In the case of `C=CCc1cc(C=C2C(=O)NC(=O)NC2=O)cc(OC)c1OCc1ccc(C(=O)O)cc1`, the Potency is reported as active: 89.1 µM. In the case of `CCCc1[nH]nc2c1C(CCC)C(C#N)=C(N)O2` (stereo unspecified), the Potency is reported as inconclusive: 79.4 µM [inhibitor, partial curve, poor fit]. `c1ccc(CCCCN2CCC(c3ccccc3)CC2)cc1` was tested, and the max response, negative = inhibition was inactive: 6.23% and inactive: 8.72%. For `O=c1[nH]c(=S)[nH]c(O)c1N=Nc1cc2c(cc1[N+](=O)[O-])OCO2`, the Potency was inconclusive: 89.1 µM [inhibitor, single point]. With `CCOC(=O)N1CC(C)N(/[N+]([O-])=N/Oc2ccc([N+](=O)[O-])cc2[N+](=O)[O-])CC1C` (stereo unspecified) the Potency was inconclusive: 63.1 µM [inhibitor, partial curve, poor fit]. For `C=CCN1C(=O)NC(=O)/C(=C/c2ccc(OC)c(CSc3ccccn3)c2)C1=O`, the Potency was active: 70.8 µM. For `CCCCCn1c(N)c(C(=O)NCc2cccs2)c2nc3ccccc3nc21`, the Potency was inconclusive: 79.4 µM [inhibitor, partial curve]. With `Cc1ccc(N2C(=O)/C(=C/c3ccc(CN(CCC#N)S(C)(=O)=O)o3)C(=O)NC2=S)cc1` the Potency was inconclusive: 100 µM [inhibitor, single point].
